AC50 data for 50 molecules are collected here from PubChem BioAssay AID1487 (National Center for Advancing Translational Sciences (NCATS), 2009).

Several values for one entry are separate records, joined by “and”; a condition that tells them apart may be missing. Identical values can stand only once. The list shows a part of the results. The main result of the screen is listed elsewhere. These columns were measured beside it and carry no call. Most of these compounds were active or inconclusive in the main read-out, so they are no random draw. The note in brackets gives the kind of curve behind each potency; many fits are weak.

The assay is described as follows: qHTS Assay for Modulators of Lamin A Splicing. As to conditions: HeLa LMNA splicing GFP/RFP minigene ratio, 48 h. In outline: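 S3 HeLa cells stably expressing lamin A-EGFP splicing minigene plus DsRed2, 600 cells/well, 48 h compound exposure at 37C. Laser-scanning cytometry; analysed as GFP (500-530 nm)/RFP (575-640 nm) total intensity ratio; 0.5% DMSO vehicle.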
A general note: Quantitative high-throughput screening tests each substance at several concentrations.

Where [1] appears, read: measured here: GFP splicing reporter channel.
[2] abbreviates: measured here: RFP viability control channel.

Usually AC50 stands for the concentration at which the activity in the assay is half-maximal. Regarding `Cc1cccc(-n2c(/C=C/c3ccc([N+](=O)[O-])o3)nc3ccccc3c2=O)c1`, the AC50 under setting [1] is 35.5 µM [falling, single point].

`Cc1cccc(N2C(=O)NC(=O)/C(=C\c3cccn3-c3ccc(Cl)cc3)C2=O)c1`: the AC50 reads like this: under setting [1], 15.8 µM [falling, single point]; under setting [2], 31.6 µM [falling, single point].

For the molecule `CN(C)c1ccc(CN2CCc3nc(N4CCN(c5ccccn5)CC4)ncc3C2)cc1`, under setting [1], the AC50 is 10 µM [falling, partial curve, poor fit].

Take `C1CCC(NC2CCCCC2)CC1`: the AC50 reads like this: under setting [1], 11.2 µM [rising, partial curve, poor fit]; under setting [2], 2.82 µM [falling, partial curve].

On to `Cc1oc(-c2ccccc2Cl)nc1CN1C(=O)CN=C(c2ccccc2)c2ccccc21`, for which the AC50 was 11.2 µM [rising, partial curve, poor fit] under setting [1] and 17.8 µM [rising, partial curve, poor fit] under setting [2].

For `N#CC(C(=O)C12CC3CC(CC(C3)C1)C2)c1nc2ccccc2[nH]1` (stereo not given), the AC50 was 31.6 µM [rising, single point] under setting [1] and 35.5 µM [rising, single point] under setting [2].

For the molecule `Cc1cc(C)nc(N2Cc3ccccc3C2=N)n1`, the AC50 under setting [2] was 12.6 µM [rising, single point].

Regarding `COc1ccc2c(c1)/C(=C/c1cnc[nH]1)C(=O)N2`, the concentration at half-maximal activity (AC50) by setting is: under setting [1], 11.2 µM [falling, partial curve]; under setting [2], 11.2 µM [falling, partial curve].

`Cc1cc(C(=O)Cn2nnc(-c3ccc(Cl)cc3)n2)c(C)n1-c1ccccc1`: the AC50 under setting [1] is 12.6 µM [rising, partial curve] and the AC50 under setting [2] is 12.6 µM [rising, partial curve].

In the case of `Cn1cc(C(=O)Cc2ccccc2)c2ccccc21`, under setting [2], the AC50 is 15.8 µM [rising, single point].

As for `OC(c1ccc(F)cc1)C(c1ccccc1)N1CCOCC1` (stereo not given), the AC50 under setting [1] was 3.55 µM [rising, partial curve, poor fit].

Consider `CNC(=O)Oc1ccc(-c2cn3cc(C)ccc3n2)cc1`, for which the AC50 under setting [2] was 10 µM [rising, single point].

Take `Oc1c(Cl)c(Cl)c(Cl)c(Cl)c1Cl`: the AC50 by setting is: under setting [1], 14.1 µM [falling, single point]; under setting [2], 20 µM [falling, single point].

For `COC(=O)C1=C(C)NC(C)=C(C(=O)OC)C1c1ccccc1[N+](=O)[O-]`, the AC50 was 17.8 µM [falling, partial curve, poor fit] under setting [1]; 22.4 µM [falling, single point] and 1.12 µM [falling, partial curve, poor fit] under setting [2].

For the molecule `CC(C)c1oc(=O)cc2c1[C@@H](O)[C@H]1OC(=O)[C@@]3(C)C[C@@H](O)[C@@H](O)[C@@]2(C)C13` (stereo not given in full), the AC50 under setting [1] is 0.224 µM [falling, full curve].

As to `Cc1cccn2c(=O)cc(COc3cccc(NC(=O)COc4ccc(F)cc4)c3)nc12`, the AC50 under setting [1] is 14.1 µM [falling, partial curve] and the half-maximal activity concentration (AC50) under setting [2] is 11.2 µM [falling, partial curve].

Consider `Ic1ccccc1CNC1C2CCN(CC2)C1C(c1ccccc1)c1ccccc1` (stereo not given), for which the AC50 reads like this: under setting [1], 31.6 µM [falling, partial curve, poor fit]; under setting [2], 35.5 µM [falling, partial curve, poor fit].

With `CC1(C)C(C=C(Cl)Cl)C1C(=O)OCc1cccc(Oc2ccccc2)c1` (stereo not given), the AC50 under setting [1] is 25.1 µM [falling, single point] and the half-maximal activity concentration (AC50) under setting [2] was 22.4 µM [falling, single point].

As for `O=C1N(c2cccc(Cl)c2)C(c2cccnc2)N2CCCN12` (stereo not given), the AC50 was 5.62 µM [rising, single point] under setting [1] and 5.62 µM [rising, single point] under setting [2].

Turning to `CCC(=NCc1ccco1)c1c(O)n(-c2ccccc2)c(=O)[nH]c1=O`, the AC50 under setting [2] is 28.2 µM [rising, single point].

`Cc1ccc(NC(=O)Nc2ccc3nc(N4CCN(C)CC4)cc(C)c3c2)cc1F`: under setting [2], the AC50 is 12.6 µM [rising, partial curve].

Turning to `NP(=O)(Oc1ccc(Cl)cc1)Oc1ccc(Cl)cc1`, under setting [1], the AC50 is 35.5 µM [falling, single point].

On to `O=c1[nH]cc(F)c(=O)[nH]1`, for which the AC50 is 2.82 µM [rising, full curve] and 4.47 nM [falling, full curve, poor fit] and 20 nM [falling, full curve] under setting [1]; 11.2 nM [rising, full curve, poor fit] and 126 nM [rising, full curve, poor fit] and 1.26 µM [rising, full curve] under setting [2].

For `O=C(c1cc2nc(-c3ccccc3)cc(-c3ccccc3)n2n1)N1CCC2(CC1)OCCO2`, the AC50 under setting [2] was 14.1 µM [rising, partial curve].

Turning to `CCC(COC(=O)c1cc(OC)c(OC)c(OC)c1)(c1ccccc1)N(C)C` (stereo not given), the AC50 is, setting by setting: under setting [1], 8.91 µM [falling, partial curve, poor fit]; under setting [2], 0.00891 µM [falling, full curve, poor fit].

As to `CCn1ccnc1CN1CCCC(C(=O)c2cc(C)c(OC)c(C)c2)C1` (stereo not given), the half-maximal activity concentration (AC50) under setting [1] is 20 µM [falling, partial curve] and the AC50 under setting [2] is 12.6 µM [falling, partial curve, poor fit].

With `COc1cc2[nH]c(=O)n(-c3ccc(C)cc3)c(=O)c2cc1OC`, the AC50 is 3.98 µM [falling, partial curve] under setting [1] and 1 µM [falling, partial curve] under setting [2].

For the molecule `O=C(C1CC(c2ccc(Cl)c(Cl)c2)=NO1)N1CCC2(CC1)OCCO2` (stereo not given), under setting [2], the AC50 was 0.398 µM [rising, full curve, poor fit].

Consider `CCC(=O)N1N=C2C3CCN(CC3)C2C1c1ccc(C)cc1` (stereo not given), for which the AC50 runs as follows: under setting [1], 0.112 µM [falling, full curve]; under setting [2], 0.141 µM [falling, full curve, poor fit].

As to `CCOC(=O)/C(=N\Nc1ccccc1)N1CC1`, the half-maximal activity concentration (AC50) under setting [2] is 7.08 µM [rising, partial curve, poor fit].

For the molecule `Cc1cccc(NC(=O)C2CCCN(S(=O)(=O)c3ccc4c(c3)oc(=O)n4C)C2)c1` (stereo not given), under setting [2], the AC50 was 0.0501 µM [falling, full curve, poor fit].

Consider `CC(C)NS(=O)(=O)c1ccc(OCC(=O)N2CCN(Cc3ccccc3)CC2)c(Cl)c1`, for which the AC50 under setting [2] is 17.8 µM [rising, partial curve, poor fit].

On to `Cc1ccc(O)c(C(=O)c2cc(C(=O)NCCC(C)C)c(=O)n(CCC(C)C)c2)c1`, for which the AC50 under setting [2] was 35.5 µM [rising, single point].

`FC(F)(F)c1ccc2c(c1)ncn2C1CCN(Cc2nnnn2C2CCCCC2)CC1`: the AC50 under setting [1] is 12.6 µM [rising, single point] and the AC50 under setting [2] was 17.8 µM [rising, single point].

Turning to `CCN1CCN(c2cc(N3CCCC3)c([N+](=O)[O-])cc2F)CC1`, under setting [2], the AC50 was 31.6 µM [rising, single point].

On to `O=C(NC1CN2CCC1CC2)c1cc(Cl)c([N+](=O)[O-])c2nc[nH]c12` (stereo not given), for which the concentration at half-maximal activity (AC50) was 17.8 µM [rising, single point] under setting [1] and 31.6 µM [rising, single point] under setting [2].

As to `CCCCCn1c(=O)c(C(=O)Nc2ccncc2)c(O)c2ccccc21`, the AC50 under setting [2] is 2.51 µM [rising, full curve].

Consider `O=C(CSC1c2ccccc2-c2ccccc21)N/N=C/c1ccccc1O`, for which, under setting [2], the AC50 is 14.1 µM [rising, partial curve].

Regarding `CN1C2CCC1CC(OC(c1ccccc1)c1ccccc1N)C2` (stereo not given), under setting [2], the AC50 was 6.31 µM [falling, partial curve, poor fit].

Regarding `Cc1ccc(Oc2cnn(-c3ccccc3)c(=O)c2Br)cc1`, the AC50 runs as follows: under setting [1], 31.6 µM [rising, single point]; under setting [2], 12.6 µM [rising, single point].

Consider `CC/C(=C\C=C\[C@@H]1C=C[C@@H]2CCC[C@H]2[C@@H]1C(=O)c1ccc[nH]1)[C@@H]1O[C@@H]([C@@H](C)C(=O)O)CC[C@@H]1C`, for which the concentration at half-maximal activity (AC50) by setting is: under setting [1], 3.98 µM [rising, partial curve]; under setting [2], 2.82 µM [rising, full curve].

As for `O=Cc1cn(Cc2cccc(F)c2)c2ccccc12`, the AC50 by setting is: under setting [1], 10 µM [rising, single point]; under setting [2], 15.8 µM [rising, single point].

For `COCCCn1c(N)c(C(=O)Nc2sc3c(c2C(=O)OC)CCCC3)c2nc3ccccc3nc21`, the AC50 under setting [2] is 14.1 µM [falling, single point].

Consider `N#Cc1c(Cl)nc(Cl)c2c1CCN(Cc1ccccc1)C2`, for which the AC50 under setting [1] is 1.58 µM [rising, partial curve, poor fit].

In the case of `c1csc(-c2nnc(Cc3cccc4ccccc34)o2)c1`, the AC50 by setting is: under setting [1], 25.1 µM [rising, single point]; under setting [2], 35.5 µM [rising, single point].

Take `COC(=O)c1ccccc1NC(=O)c1cccn(Cc2cccc(Cl)c2)c1=O`: the half-maximal activity concentration (AC50) under setting [1] was 0.0398 µM [falling, full curve, poor fit] and the AC50 under setting [2] is 35.5 µM [rising, single point].

Consider `CC1CC(C)CN(CC(=O)c2ccc(OC(F)F)cc2)C1` (stereo not given), for which the AC50 under setting [1] is 0.708 µM [falling, full curve, poor fit].

As to `OCCN1CCN(CCCN2c3ccccc3Sc3ccc(C(F)(F)F)cc32)CC1`, the AC50 under setting [1] is 3.98 µM [falling, partial curve, poor fit] and 6.31 µM [falling, partial curve] and 15.8 µM [falling, partial curve].

As for `Cc1ccccc1-n1c(O)c(/C=C2/C(c3ccccc3)=Nc3ccccc32)c(=O)[nH]c1=O`, under setting [2], the AC50 was 5.01 µM [rising, partial curve].

In the case of `Clc1ccc2c(c1)C(c1ccccc1Cl)=NCc1nnc(N3CCN(CCSc4ccccc4)CC3)n1-2`, the AC50 under setting [1] is 35.5 µM [falling, single point] and the AC50 under setting [2] was 35.5 µM [falling, single point].
